Data reported in patent US20230174624A1, “FERRITIN VARIANTS WITH INCREASED STABILITY, COMPLEXATION ABILITY AND TRANSFERRIN RECEPTOR AFFINITY” (CELLIS AG, priority 2020, published 2023).

Experiment: Doxorubicin encapsulation (loading) efficiency
Format: physicochemical

Q11E-Q15E: human H ferritin mutant Q11E Q15E (TRBD SEQ ID NO. 12); in examples 3-8 also K54E, K72E, K87Q, K144E, C91S, C103S (MTTASTSQVRENYHEDSEAA; listed as Homo sapiens)
average doxorubicin molecules loaded per cage: 63 molecules

Q11E: human H ferritin mutant Q11E (TRBD SEQ ID NO. 05); in examples 3-8 also K54E, K72E, K87Q, K144E, C91S, C103S, C131S (MTTASTSQVRENYHQDSEAA; listed as Homo sapiens)
average doxorubicin molecules loaded per cage: 55 molecules
